Results deposited as PubChem BioAssay AID504808 (Drosophila RNAi Screening Center, 2011)
In all, the deposit lists about 21,000 reagents; this is a random part of those that have a named target and a result. Of all reagents, 18 (0.084%) are marked active. 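Raw counts without plate normalisation, one of two replicates; the ratio scores behind the calls were not deposited.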 The numbers tell different reagents against one gene apart. A plus sign joins genes that one reagent is predicted to hit. The record does not give: the amount of reagent, the time to read-out.

Purpose: 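Chromatin factors that keep E2F targets switched off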 (primary screen)
Cells: Drosophila S2 cells
Knock-down reagent: long dsRNA against Drosophila genes
Read-out: 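Firefly luciferase driven by E2F sites, normalised to Renilla luciferase on the same minimal promoter, measured by plate reader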
Reading the numbers: E2F firefly: higher = more E2F reporter activity; Renilla normaliser: higher = more normaliser reporter signal
Rule for the call: 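a knock-down counted as active when the firefly/Renilla E2F signal rose above 50%, a threshold chosen arbitrarily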

predicted target,reagent,"E2F firefly, rep 1","Renilla normaliser, rep 1",activity call
Srp14 (Signal recognition particle 14),1,1.41e5,6897,inactive
CG8642,1,1.35e5,4577,inactive
CG6425,1,1725,872,inactive
atms (antimeros),1,83188,3731,inactive
Prx6c + CG12896 + Prx6b,1,1.42e5,4675,inactive
Madm (MLF1-adaptor molecule),1,1.19e5,6385,inactive
CG10041,1,1.48e5,6325,inactive
"GAPsec (GTPase activating protein, SECIS-dependent read-through)",1,70513,2958,inactive
lncRNA:bxd (bithoraxoid),1,86375,2576,inactive
Pex13 (Peroxin 13),1,2792,194,inactive
CG13539,1,94280,4235,inactive
CG12106,1,7485,852,inactive
Tom (Twin of m4),1,76333,3314,inactive
Sema1b (Semaphorin 1b),1,76520,3544,inactive
CG11322,1,1.42e5,4891,inactive
Vha16-5 (Vacuolar H[+] ATPase 16kD subunit 5),1,1.73e5,5501,inactive
CG2915,1,2687,184,inactive
CG6996,1,1.20e5,5679,inactive
CG33784,1,67386,3487,inactive
CG31867,1,1.45e5,5227,inactive
CG32801,1,1.23e5,5492,inactive
Cnb (Centrobin),1,71026,2770,inactive
CG5180,1,1.34e5,7487,inactive
CG17660,1,92402,3893,inactive
"ATPsynCF6 (ATP synthase, coupling factor 6)",1,98265,6168,inactive
sqd (squid),1,1.05e5,5510,inactive
sqd (squid),2,54010,4803,inactive
CG7483,1,1.37e5,7299,inactive
CG7483,2,,,inactive
CG8243,1,1.52e5,4606,inactive
CG10376,1,80985,4373,inactive
alpha-Est5 (alpha-Esterase-5),1,70857,3394,inactive
CG1387,1,7528,700,inactive
CG32301,1,90317,3794,inactive

Sorted by “Renilla normaliser, rep 1” (high to low): 3 of the entries above.
predicted target,reagent,"E2F firefly, rep 1","Renilla normaliser, rep 1",activity call
CG6996,1,1.20e5,5679,inactive
CG31867,1,1.45e5,5227,inactive
CG33784,1,67386,3487,inactive
